The values below come from the supplement of paper PMC12067093, “Discovery and optimisation of a covalent ligand for TRIM25 and its application to targeted protein ubiquitination” (Chemical Science, 2025).

Amino acid sequences for entries named in this document (tags omitted). A change or cut given only in a name is not applied to a line headed by its entry.
UniProt P08559, whole entry, looked up: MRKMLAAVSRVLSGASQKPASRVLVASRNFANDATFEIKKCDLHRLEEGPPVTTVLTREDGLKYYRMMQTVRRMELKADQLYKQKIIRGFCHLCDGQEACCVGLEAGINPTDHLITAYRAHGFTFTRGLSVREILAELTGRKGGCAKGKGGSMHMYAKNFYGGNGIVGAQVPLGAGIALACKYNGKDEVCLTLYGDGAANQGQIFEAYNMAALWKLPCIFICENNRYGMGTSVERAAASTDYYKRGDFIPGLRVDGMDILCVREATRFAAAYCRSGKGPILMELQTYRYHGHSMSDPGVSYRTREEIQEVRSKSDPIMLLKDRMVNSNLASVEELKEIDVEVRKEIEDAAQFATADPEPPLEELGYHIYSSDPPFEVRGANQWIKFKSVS
UniProt Q6P996: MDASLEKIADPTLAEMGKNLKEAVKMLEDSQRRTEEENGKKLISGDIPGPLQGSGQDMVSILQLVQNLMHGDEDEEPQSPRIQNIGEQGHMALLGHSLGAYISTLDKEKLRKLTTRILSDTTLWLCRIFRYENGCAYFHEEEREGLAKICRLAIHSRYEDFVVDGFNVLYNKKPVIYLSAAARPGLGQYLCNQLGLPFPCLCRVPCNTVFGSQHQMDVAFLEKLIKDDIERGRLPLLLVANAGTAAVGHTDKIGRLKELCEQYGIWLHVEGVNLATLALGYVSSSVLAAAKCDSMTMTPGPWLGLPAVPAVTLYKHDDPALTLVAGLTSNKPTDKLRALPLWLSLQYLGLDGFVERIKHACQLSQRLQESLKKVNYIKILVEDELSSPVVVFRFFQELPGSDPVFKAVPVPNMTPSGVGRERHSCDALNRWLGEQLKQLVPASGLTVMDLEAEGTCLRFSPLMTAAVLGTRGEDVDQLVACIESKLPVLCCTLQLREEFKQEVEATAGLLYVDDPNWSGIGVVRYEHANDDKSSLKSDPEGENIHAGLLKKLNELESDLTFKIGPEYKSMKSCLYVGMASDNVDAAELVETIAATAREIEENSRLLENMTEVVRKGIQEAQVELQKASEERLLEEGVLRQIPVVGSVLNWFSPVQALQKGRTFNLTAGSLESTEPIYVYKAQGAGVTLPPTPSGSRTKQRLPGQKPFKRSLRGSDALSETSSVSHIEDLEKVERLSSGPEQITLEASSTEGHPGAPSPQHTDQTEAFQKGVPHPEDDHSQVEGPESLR
UniProt Q9UGN5: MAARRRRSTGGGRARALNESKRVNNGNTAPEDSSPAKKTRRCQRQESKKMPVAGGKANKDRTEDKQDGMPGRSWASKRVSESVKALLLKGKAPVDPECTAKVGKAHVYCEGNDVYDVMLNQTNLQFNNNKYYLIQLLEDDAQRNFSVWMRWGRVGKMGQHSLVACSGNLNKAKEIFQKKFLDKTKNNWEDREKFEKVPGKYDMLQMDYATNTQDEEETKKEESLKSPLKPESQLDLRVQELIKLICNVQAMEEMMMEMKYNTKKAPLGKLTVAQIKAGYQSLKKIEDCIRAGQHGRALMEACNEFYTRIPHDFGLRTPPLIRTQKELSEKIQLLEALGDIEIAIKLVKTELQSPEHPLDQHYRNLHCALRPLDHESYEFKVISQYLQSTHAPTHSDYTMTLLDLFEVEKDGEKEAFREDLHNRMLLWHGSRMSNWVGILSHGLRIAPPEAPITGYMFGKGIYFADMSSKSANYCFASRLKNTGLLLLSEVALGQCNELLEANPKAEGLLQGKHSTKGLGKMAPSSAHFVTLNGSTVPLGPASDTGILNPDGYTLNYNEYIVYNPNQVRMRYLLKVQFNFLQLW
UniProt Q8N3A8: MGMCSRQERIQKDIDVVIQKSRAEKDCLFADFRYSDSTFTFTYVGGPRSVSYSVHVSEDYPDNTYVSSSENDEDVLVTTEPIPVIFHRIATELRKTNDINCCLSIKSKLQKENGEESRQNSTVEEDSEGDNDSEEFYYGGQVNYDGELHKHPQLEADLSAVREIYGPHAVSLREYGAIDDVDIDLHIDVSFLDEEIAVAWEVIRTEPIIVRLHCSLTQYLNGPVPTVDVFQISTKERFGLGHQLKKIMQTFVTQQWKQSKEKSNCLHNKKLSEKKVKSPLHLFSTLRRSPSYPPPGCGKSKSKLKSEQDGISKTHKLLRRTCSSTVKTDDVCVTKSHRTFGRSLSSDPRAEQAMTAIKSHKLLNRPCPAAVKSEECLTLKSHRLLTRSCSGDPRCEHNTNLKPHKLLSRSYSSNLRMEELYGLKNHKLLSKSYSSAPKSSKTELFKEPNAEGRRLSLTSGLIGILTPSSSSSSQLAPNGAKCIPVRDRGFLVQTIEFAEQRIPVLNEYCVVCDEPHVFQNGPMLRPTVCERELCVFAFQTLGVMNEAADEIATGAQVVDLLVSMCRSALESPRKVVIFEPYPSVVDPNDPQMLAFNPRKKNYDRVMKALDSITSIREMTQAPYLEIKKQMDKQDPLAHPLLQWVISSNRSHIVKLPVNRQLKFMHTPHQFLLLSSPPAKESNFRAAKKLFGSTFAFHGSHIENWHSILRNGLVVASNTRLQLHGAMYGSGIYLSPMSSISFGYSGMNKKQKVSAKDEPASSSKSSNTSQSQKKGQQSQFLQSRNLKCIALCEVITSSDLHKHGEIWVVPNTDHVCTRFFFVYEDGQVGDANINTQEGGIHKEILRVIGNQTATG
UniProt Q9NTI5: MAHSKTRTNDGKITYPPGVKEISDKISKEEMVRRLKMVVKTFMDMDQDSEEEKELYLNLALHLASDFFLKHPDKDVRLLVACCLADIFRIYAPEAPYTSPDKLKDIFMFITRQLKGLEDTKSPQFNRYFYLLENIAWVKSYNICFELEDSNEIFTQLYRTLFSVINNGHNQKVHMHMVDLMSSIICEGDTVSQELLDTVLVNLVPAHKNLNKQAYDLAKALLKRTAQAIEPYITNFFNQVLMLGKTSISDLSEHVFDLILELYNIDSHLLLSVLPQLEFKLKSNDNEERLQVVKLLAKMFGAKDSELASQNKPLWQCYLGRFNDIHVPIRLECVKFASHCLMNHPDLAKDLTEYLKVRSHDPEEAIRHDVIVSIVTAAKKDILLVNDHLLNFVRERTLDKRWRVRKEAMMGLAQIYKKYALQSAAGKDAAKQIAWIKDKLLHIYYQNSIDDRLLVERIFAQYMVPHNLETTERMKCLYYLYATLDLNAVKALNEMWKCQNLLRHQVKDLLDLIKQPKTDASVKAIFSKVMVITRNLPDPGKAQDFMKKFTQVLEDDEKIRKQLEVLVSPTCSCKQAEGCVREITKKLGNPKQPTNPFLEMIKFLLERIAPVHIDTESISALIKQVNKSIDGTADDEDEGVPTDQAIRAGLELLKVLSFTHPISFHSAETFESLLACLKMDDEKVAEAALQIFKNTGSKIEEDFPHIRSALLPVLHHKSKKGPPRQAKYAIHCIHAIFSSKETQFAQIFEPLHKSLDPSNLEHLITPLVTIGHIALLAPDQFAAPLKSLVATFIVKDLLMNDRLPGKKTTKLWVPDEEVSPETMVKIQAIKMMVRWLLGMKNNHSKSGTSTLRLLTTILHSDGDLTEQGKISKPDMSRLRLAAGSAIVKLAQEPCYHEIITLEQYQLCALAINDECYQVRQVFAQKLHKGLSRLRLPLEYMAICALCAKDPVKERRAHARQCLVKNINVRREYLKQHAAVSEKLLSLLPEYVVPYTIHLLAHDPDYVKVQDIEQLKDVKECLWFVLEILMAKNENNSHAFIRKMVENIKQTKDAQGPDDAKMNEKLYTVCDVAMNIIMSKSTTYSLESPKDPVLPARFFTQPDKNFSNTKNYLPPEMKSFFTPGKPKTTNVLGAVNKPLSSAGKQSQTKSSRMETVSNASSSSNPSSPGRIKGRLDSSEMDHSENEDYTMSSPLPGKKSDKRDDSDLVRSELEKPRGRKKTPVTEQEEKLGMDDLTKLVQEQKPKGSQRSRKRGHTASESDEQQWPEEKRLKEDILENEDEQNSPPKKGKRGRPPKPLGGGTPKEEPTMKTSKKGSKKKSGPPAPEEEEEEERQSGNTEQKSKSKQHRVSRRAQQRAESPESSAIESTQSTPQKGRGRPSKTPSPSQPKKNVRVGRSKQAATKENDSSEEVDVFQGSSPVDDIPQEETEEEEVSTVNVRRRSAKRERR
UniProt Q86SE9: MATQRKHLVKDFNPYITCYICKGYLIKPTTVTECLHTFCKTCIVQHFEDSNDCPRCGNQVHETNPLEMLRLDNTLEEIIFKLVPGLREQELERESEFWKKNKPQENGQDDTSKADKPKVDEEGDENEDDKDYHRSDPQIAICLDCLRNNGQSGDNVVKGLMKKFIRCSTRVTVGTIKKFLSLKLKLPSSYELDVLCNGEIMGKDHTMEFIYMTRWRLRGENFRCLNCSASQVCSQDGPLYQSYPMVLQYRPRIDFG
UniProt Q9H0N5: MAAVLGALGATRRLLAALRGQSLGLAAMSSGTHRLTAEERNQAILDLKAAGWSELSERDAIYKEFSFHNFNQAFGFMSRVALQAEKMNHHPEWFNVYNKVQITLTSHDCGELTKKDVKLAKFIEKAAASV
UniProt Q5JVF3: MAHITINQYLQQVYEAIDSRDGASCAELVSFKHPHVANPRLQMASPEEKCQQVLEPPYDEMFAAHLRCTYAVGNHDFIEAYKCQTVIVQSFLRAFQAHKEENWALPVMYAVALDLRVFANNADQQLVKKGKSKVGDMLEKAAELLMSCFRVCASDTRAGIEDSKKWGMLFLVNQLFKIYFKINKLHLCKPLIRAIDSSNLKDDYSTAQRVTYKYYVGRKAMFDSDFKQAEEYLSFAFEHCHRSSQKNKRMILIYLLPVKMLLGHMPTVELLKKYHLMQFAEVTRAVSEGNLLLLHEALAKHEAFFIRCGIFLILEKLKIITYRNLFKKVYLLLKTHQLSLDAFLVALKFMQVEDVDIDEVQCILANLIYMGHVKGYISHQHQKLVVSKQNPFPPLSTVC
UniProt Q86U86, whole entry, looked up: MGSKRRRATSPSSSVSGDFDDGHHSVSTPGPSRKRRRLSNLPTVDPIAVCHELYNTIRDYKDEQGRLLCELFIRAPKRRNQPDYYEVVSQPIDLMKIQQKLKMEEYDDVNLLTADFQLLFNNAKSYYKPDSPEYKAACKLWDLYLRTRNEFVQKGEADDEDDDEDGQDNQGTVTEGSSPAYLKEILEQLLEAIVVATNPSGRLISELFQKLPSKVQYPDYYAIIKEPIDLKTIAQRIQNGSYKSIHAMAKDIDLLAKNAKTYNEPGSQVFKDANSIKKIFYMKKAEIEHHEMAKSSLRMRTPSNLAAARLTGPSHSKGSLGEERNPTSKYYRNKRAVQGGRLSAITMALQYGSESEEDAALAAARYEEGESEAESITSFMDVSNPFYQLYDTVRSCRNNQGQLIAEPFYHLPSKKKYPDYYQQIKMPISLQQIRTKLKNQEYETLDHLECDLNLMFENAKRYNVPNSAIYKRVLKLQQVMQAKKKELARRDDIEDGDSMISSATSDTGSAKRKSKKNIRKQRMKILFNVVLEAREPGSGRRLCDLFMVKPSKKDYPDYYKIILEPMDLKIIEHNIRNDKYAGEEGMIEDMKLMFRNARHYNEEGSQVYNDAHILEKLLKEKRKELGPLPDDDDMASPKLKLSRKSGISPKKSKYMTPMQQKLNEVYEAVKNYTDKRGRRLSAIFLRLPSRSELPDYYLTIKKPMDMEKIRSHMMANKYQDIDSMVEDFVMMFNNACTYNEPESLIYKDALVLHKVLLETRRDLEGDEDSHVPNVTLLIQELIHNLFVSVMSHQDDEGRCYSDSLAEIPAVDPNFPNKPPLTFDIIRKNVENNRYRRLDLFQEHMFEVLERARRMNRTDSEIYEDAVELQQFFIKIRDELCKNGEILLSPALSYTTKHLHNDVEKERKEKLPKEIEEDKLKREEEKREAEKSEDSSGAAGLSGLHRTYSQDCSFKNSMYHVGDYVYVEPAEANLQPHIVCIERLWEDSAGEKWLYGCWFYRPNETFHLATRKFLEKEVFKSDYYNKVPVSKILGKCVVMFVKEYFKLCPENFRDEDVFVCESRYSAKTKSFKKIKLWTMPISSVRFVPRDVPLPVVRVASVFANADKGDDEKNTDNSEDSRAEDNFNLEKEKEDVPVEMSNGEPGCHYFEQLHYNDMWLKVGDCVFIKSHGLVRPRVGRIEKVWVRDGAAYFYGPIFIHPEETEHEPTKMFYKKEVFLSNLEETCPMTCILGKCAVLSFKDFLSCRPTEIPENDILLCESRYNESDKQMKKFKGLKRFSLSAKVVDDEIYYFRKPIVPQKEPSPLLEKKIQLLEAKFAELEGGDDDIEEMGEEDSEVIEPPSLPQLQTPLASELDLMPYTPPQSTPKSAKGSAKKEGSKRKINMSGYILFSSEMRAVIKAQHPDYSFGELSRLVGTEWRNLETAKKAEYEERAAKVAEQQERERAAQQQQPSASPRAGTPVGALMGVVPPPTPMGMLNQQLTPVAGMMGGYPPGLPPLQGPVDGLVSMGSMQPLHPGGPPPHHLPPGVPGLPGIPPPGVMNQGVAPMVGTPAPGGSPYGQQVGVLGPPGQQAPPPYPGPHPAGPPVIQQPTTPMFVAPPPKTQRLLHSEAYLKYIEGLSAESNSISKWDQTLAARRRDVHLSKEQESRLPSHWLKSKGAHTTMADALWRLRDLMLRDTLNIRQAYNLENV

The other results are listed elsewhere or left out.

Compound in this experiment: CC1Cc2ccccc2N1C(=O)C1CCCN(C1)C(=O)CCl (mixture of isomers) [TRIM25 ligand 11 (diastereomer mixture)]
In words: probe-labelled cysteine peptide fold change vs DMSO (competition) (log2 fold change); higher = less target engagement (more negative = stronger competition). The settings on record: THP-1, incubation time: 4 h.
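Note: competitive chemoproteomic profiling in live THP-1 cells with an iodoacetamide desthiobiotin (IA-DTB) probe, comparing probe-labelled peptide intensities in compound-treated cells against DMSO-treated controls.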

As for “PDHA1_P08559_222_LPCIFICENNR (UniProt P08559)”, the “probe-labelled cysteine peptide fold change” value was 0.147 (10 µM) and 0.337 (50 µM).

Turning to “PATZ1_Q9HBE1_463_SHLACHEDK (UniProt Q9HBE1)”, the “probe-labelled cysteine peptide fold change” value is, setting by setting: (10 µM) -0.0651; (50 µM) -0.0716.

Consider “PDHA1_P08559_261_VDGMDILCVR (UniProt P08559)”, for which the “probe-labelled cysteine peptide fold change” value reads like this: (10 µM) -0.000985; (50 µM) 0.47.

Regarding “PDXDC1_Q6P996_481_GEDVDQLVACIESK (UniProt Q6P996)”, the “probe-labelled cysteine peptide fold change” value is -0.00556 (10 µM) and -0.121 (50 µM).

For the target “PARP2_Q9UGN5_288_KIEDCIR (UniProt Q9UGN5)”, the “probe-labelled cysteine peptide fold change” value by setting is: (10 µM) -0.0921; (50 µM) 0.0738.

Consider “PDK1_Q15118_223_HIGSINPNCNVLEVIK (UniProt Q15118)”, for which the “probe-labelled cysteine peptide fold change” value (10 µM) was 0.283 and the “probe-labelled cysteine peptide fold change” value (50 µM) was determined as 0.144.

“PDLIM5_Q96HC4_213_QPTVTSVCSETSQELAEGQRR (UniProt Q96HC4)”: the “probe-labelled cysteine peptide fold change” value is, setting by setting: (10 µM) -0.369; (50 µM) -0.383.

As to “PARP8_Q8N3A8_332_TDDVCVTK (UniProt Q8N3A8)”, the “probe-labelled cysteine peptide fold change” value is -0.114 (10 µM) and 0.0553 (50 µM).

“PDS5B_Q9NTI5_943_LPLEYMAICALCAK (UniProt Q9NTI5)”: the “probe-labelled cysteine peptide fold change” value (10 µM) stood at 0.336 and the “probe-labelled cysteine peptide fold change” value (50 µM) amounted to 0.229.

For “PCGF5_Q86SE9_53_TCIVQHFEDSNDCPR (UniProt Q86SE9)”, the “probe-labelled cysteine peptide fold change” value is 0.408 (10 µM) and -0.0388 (50 µM).

As to “PCBD2_Q9H0N5_109_VQITLTSHDCGELTKK (UniProt Q9H0N5)”, the “probe-labelled cysteine peptide fold change” value is -0.138 (10 µM) and -0.114 (50 µM).

With “PDCD11_Q14690_1154_QYQAGQTVTCFLK (UniProt Q14690)”, the “probe-labelled cysteine peptide fold change” value was -0.0831 (10 µM) and 0.0115 (50 µM).

With “PCID2_Q5JVF3_25_DGASCAELVSFK (UniProt Q5JVF3)”, the “probe-labelled cysteine peptide fold change” value is, setting by setting: (10 µM) -0.115; (50 µM) -0.0805.

In the case of “PBRM1_Q86U86_1228_EVFLSNLEETCPMTCILGK (UniProt Q86U86)”, the “probe-labelled cysteine peptide fold change” value was -0.0974 (10 µM) and 0.115 (50 µM).

In the case of “PDIA6_Q15084_291_TCEEHQLCVVAVLPHILDTGAAGR (UniProt Q15084)”, the “probe-labelled cysteine peptide fold change” value runs as follows: (10 µM) 0.055; (50 µM) 0.024.
